Measured values published in publication PMC11501031.
These are yes or no findings as the source states them, for the method shown. Some binding calls cover weakened binding; strength is not graded here. Tags and fused reporters may be left off the sequences shown.

Target: T1, Nanos, full length, fused to a DNA-binding domain (two-hybrid bait) (Drosophila) (UniProt P25724)
T1 sequence: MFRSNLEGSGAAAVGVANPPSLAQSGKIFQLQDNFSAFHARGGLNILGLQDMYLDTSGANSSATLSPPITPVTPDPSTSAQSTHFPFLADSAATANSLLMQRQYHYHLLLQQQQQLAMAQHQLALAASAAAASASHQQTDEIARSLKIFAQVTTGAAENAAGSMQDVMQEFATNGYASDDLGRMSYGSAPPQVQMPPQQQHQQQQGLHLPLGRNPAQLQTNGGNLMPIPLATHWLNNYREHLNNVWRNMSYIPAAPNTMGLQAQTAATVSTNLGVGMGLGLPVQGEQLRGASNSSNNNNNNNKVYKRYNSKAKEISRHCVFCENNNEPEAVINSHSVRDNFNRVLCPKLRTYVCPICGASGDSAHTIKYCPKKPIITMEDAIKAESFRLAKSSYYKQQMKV
Experiment: two-hybrid; yeast PJ69-4A; DBD fusion as bait, AD fusion as prey; lacZ reporter, beta-galactosidase measured with Beta-Glo in arbitrary light units; three transformants each; control is the empty AD vector

- binding: binds
B1: Cup fused to a transcriptional activation domain (two-hybrid prey) (protein, UniProt Q9VMA3 1-1117)
chain: MQMAEAEQENGAGALKIATNAGATDRPAHQQLPLPVEDQQDEVLTPAEKGKFEYPPPPPPPTPVQAPLATKATALNASQEHDDDEANSEKWEDPCAPPPPPPLPTSAFLATGLGYLKLPAFKLKDALEKAITKLEANKRTLKASPESSRSIKNKNVVALEMLPRRSNPETIGDGSMLASTSTAVMLQTKKPAVIVEMERRCKIINLLAKQNQILESISGEAIPMHGPSKHLHEDEGLTLQVLSARASTPYTQPSSMLSCTAVSCDLEHDSPRKQVASKEAVPEQQSSQVQQKRPPSTGIHKPGSLRAPKAVRPTTAPVVSSKPVKSYTRSRLMDIRNGMFNALMHRSKESFVMPRIATCDDIELEGRLRRMNIWRTSDGTRFRTRSTTANLNMNNNNNNECMPAFFKNKNKPNLISDESIIQSQPPQPQTEFQDPAIVNQRRIGSGRLNHSKWGYNDEDYHSYHNGKSQHMEEVNSKNSKNMTVLQFFDNGEISSQPQRRPNTPVMGMSINRSENDTLHSNESSEDLSRANENYVKRVMSGFLVVSKPKSRDVEDRHHRRYRNQNEEPEWFSCGPTSRLDTIELCGFDEDEEKMLKEGNKNHGLGETERETSKQKMDHKYKWTHAEPMGRSKYMPKHDTNNNHNVENMNNVMATEHQQQKEEKRPGSGRSFQFDKFNQSQQNYESSSYVNHQQPPQTQPQQMQQQSNTNTNNSKFMSFFANEGNSSSSSLNEFFKQAINQGHGNNPEQPKSLGHIGQMPSVDQLEAKWRRNSLNNVGETANKQTDNFQKLIGSLSSAKPQSQAVGYDAISNFIMQQQQYQQQQQKQHLIIQQQQQHTAFLASLQLKAILGRADTQLLLLRLTKGEISKHGLLVQLANPRLTDMDREAITAVLQFTNTQQQQQQHKQQLDMLSSTVIASQLQNLHNLAIVQQTLAARQQPQHNPQTQAPHQLSQEDLQAHANVIMRNAVMKRKIEEQTSKLINGGAKHQAQQQYLNRGQQRQARPDANSNALLHALISGGGNNHASGYPMNGQPQKHHSNLRFGDNQNFQSFESNQPHFATQYKQQYQQSQQQHPHQQPQQLNSLHQNNAGAVNSFNKAQMQAQSAISMLPNSGDEFH
